Laboratory results taken from article PMC6947699.
No constants are given. Whether binding was seen depends on the method and setting. In cells and extracts the contact can be indirect. Binding calls can cover weak binding; strength is not graded here. Sequences can lack the tags named with a protein.

Target: T1, GST-fusion USP15, purified from BL21 (UniProt Q9Y4E8)
T1 sequence: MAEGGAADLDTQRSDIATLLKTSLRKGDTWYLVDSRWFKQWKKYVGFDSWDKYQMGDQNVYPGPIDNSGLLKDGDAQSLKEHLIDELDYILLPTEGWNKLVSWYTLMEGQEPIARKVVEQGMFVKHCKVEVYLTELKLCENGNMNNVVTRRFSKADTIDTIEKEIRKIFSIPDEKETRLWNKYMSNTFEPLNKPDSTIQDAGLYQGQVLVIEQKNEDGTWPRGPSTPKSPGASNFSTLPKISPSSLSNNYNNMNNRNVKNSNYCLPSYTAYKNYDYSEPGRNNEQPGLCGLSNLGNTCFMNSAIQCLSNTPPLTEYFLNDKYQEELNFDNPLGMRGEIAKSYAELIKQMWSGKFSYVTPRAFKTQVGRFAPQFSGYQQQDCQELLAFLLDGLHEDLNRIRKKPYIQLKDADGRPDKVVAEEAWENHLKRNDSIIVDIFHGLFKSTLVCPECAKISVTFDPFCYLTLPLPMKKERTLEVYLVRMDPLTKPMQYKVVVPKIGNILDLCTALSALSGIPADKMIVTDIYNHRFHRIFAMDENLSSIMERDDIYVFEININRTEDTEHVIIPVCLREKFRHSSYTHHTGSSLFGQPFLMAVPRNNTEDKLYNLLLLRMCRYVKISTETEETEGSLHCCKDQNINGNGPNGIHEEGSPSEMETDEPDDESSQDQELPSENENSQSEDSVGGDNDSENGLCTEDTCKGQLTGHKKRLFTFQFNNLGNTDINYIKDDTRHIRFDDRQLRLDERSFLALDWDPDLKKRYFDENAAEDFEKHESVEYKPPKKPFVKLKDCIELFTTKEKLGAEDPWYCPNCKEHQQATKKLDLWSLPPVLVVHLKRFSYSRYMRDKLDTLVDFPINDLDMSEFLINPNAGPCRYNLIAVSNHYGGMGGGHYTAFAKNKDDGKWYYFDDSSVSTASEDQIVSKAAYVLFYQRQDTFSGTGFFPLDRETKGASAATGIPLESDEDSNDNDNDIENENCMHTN
Assay: co-IP; in vitro Co-IP with IL1R2 or icd-IL1R2 and USP15 protein truncations purified from BL21, Western blot; both purified

Row | binding | Substance
1 | binds | GST-fusion IL1R2 intracellular domain (icd-IL1R2), purified from BL21 (human) (domain or fragment)
2 | binds | GST-fusion IL1R2 (full length), purified from BL21 (human) (receptor)
